# Data: PubChem BioAssay AID445 (National Center for Advancing Translational Sciences (NCATS), 2006)
# Some of the results follow. These are further read-outs of the screen, such as a control signal, another cell line or another target. No call is given for them. Most of these compounds were active or inconclusive in the main read-out, so they are no random draw. Potencies come from curve fits of mixed quality, noted in brackets.
# Test: IkB Signaling
# Conditions: ABC-DLBCL IkBa-CBG/CBR dual luciferase ratio (green luciferase fused to IkBa over red control in OCI-Ly3 lymphoma cells), 4 h
# In short: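 Curves were fitted separately to fusion (green), unfused (red) and ratio luminescence, then classed by r2, magnitude and activity. Cells: OCI-Ly3, 4 h compound plus doxycycline at 37C; 10 uM MG-132 defined full response.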
# [1] = measured here: control luc red channel unless noted
smiles,measurement,setting,value
CCOc1ccccc1NC(=O)CCS(=O)(=O)c1cccc2nsnc12,AC50,[1],"39.8 µM [rising, single point]"
CC1(C)CC(=O)C2=C(C1)OC1=C(C(=O)CC(C)(C)C1)C2c1ccc(O)cc1O,AC50,measured here: IkB-luc green channel,"1.26 µM [rising, single point]"
same,AC50,measured here: control luc red channel,"7.94 µM [falling, full curve]"
CCOCCCNC(=O)C(c1ccccc1)N(Cc1cccs1)C(=O)c1ccc(NC(C)=O)cc1 (stereo not given),AC50,[1],"3.98 µM [falling, full curve]"
COc1cccc(N2C(=O)C(CC(=O)Nc3ccc(Cl)cc3)N(Cc3ccc4c(c3)OCO4)C2=O)c1 (stereo not given),AC50,[1],"25.1 µM [falling, partial curve]"
Cc1cccc(N2CCN(C(=O)C3CCCN(S(=O)(=O)c4cccc5nsnc45)C3)CC2)c1C (stereo not given),AC50,[1],"39.8 µM [falling, single point]"
Cc1cccc(-c2noc(CCCC(=O)NCc3ccco3)n2)c1,AC50,[1],"25.1 µM [falling, single point]"
O=C(NCCc1c[nH]c2ccccc12)c1c(Cl)nc2sccn12,AC50,[1],"0.398 µM [rising, full curve, poor fit]"
Cc1ccc(Nc2ncnc3c2cnn3-c2ccccc2)c(C)c1,AC50,[1],"12.6 µM [falling, partial curve]"
COc1cccc(CNC(=O)c2cc3cccc4c3n2CC(C)S4)c1OC (stereo not given),AC50,[1],"20 µM [falling, partial curve]"
COc1cc2c(=O)c(S(=O)(=O)c3ccc(F)cc3)cn(Cc3ccccc3C)c2cc1OC,AC50,[1],"15.8 µM [falling, partial curve]"
Cc1ccc(-n2cc(-c3ccccc3)c3c(NC4CCCC4)ncnc32)cc1,AC50,[1],"3.98 µM [rising, partial curve, poor fit]"
Cc1ccc(-c2noc(-c3ccc(N4CCC(C)CC4)c([N+](=O)[O-])c3)n2)cc1,AC50,[1],"1.58 µM [rising, full curve]"
O=C(Cc1ccccc1)N(Cc1cccnc1)c1nc2c(F)cccc2s1,AC50,[1],"25.1 µM [falling, single point]"
COc1cccc(C(=O)NC2CC3CCCC(C2)N3CC(=O)Nc2ccccc2)c1 (stereo not given),AC50,[1],"20 µM [falling, partial curve]"
CCOc1cccc2cc(-c3cn4c(n3)sc3cc(C)ccc34)c(=O)oc12,AC50,[1],"0.631 µM [falling, full curve]"
Cc1cc(C)c2c(CC(=O)Nc3ccc(S(=O)(=O)N4CCCC(C)C4)cc3)coc2c1 (stereo not given),AC50,[1],"15.8 µM [falling, partial curve]"
Cc1ccc(OCC(=O)Nc2cccc(OCc3cc(=O)n4ccccc4n3)c2)cc1C,AC50,[1],"0.251 µM [falling, full curve]"
Cc1cc(C)cc(OCCn2c(C3CC(=O)N(c4ccccc4Cl)C3)nc3ccccc32)c1 (stereo not given),AC50,[1],"39.8 µM [falling, single point]"
O=C(Nc1nc2ccccc2s1)C1CCCO1 (stereo not given),AC50,[1],"12.6 µM [falling, partial curve]"
COc1ccc(CCNC(=O)CCn2c(=O)c3ccccc3n(CC(=O)Nc3ccccc3F)c2=O)cc1OC,AC50,[1],"0.00794 µM [falling, full curve, poor fit]"
CC(C)(C)c1ccc(C2Sc3ccccc3NC3=C2C(=O)c2ccccc23)cc1 (stereo not given),AC50,[1],"15.8 µM [falling, partial curve]"
CCOC(=O)c1cc(S(=O)(=O)Nc2ccc(Br)c(C)c2)[nH]n1,AC50,[1],"15.8 µM [falling, partial curve]"
Cc1ccc2c(c1)c1c(c(=O)n(-c3cccc(Cl)c3)c(=O)n1CC(=O)N1CCCC1)n2C,AC50,[1],"39.8 µM [falling, single point]"
COc1ccc(Br)cc1CNC(=O)c1cc2ccccn2n1,AC50,[1],"25.1 µM [falling, partial curve]"
Cn1c(CN2CCCCC2)nc2cc(NC(=O)c3cccc(Br)c3)ccc21,AC50,[1],"0.631 µM [falling, full curve]"
CC(C)(C)c1csc(NC(=O)c2cccs2)n1,AC50,[1],"12.6 µM [falling, single point]"
CCC(C(=O)Nc1ccccc1C(=O)OC)n1c(C)c2cnn(-c3ccccc3)c(=O)c2c1C (stereo not given),AC50,[1],"15.8 µM [falling, single point]"
CCOc1ccccc1Oc1cn[nH]c1-c1ccc(OC)cc1O,AC50,[1],"15.8 µM [falling, partial curve]"
COc1ccc(Cn2c(C(=O)O)c(CNCc3cccc(OC)c3)c3ccc(C)cc32)cc1,AC50,[1],"25.1 µM [falling, partial curve, poor fit]"
CCCCN(CC)CCNC(=O)Cn1cnc2sc(C)c(S(=O)(=O)N3CCC(C)CC3)c2c1=O,AC50,[1],"0.0501 µM [falling, partial curve, poor fit]"
COC(=O)c1cnn(-c2ccc(C(=O)Nc3cccc(C(C)=O)c3)cc2)c1N,AC50,[1],"12.6 µM [falling, partial curve]"
Cn1c(=O)oc2cc(S(=O)(=O)N3CCC(C(=O)NCc4ccccc4Cl)CC3)ccc21,AC50,[1],"25.1 µM [rising, partial curve, poor fit]"
Cc1c(/C=N/n2cnnc2)c2ccccc2n1CCOc1ccc(Cl)cc1,AC50,[1],"39.8 µM [rising, single point] [measured here: IkB-luc green channel]"
O=C1CN(C(=O)Cc2ccc(F)cc2)C(c2ccccc2)c2cc(Br)ccc2N1 (stereo not given),AC50,[1],"12.6 µM [falling, partial curve]"
Cc1ccc(NC(=O)CN2CCC3(O)CCCCC3C2c2ccc3c(c2)OCO3)c(C)c1 (stereo not given),AC50,[1],"12.6 µM [falling, partial curve]"
CCOC(=O)c1[nH]c(C)c(CCC(=O)Nc2c(C)cc(C)cc2C)c1C,AC50,[1],"12.6 µM [rising, partial curve]"
CCCn1c(SCc2nc(-c3ccccc3C)no2)nnc1-c1ccc(Cl)cc1,AC50,[1],"25.1 µM [falling, partial curve]"
COc1ccc(N2C(=O)CSC23C(=O)N(CC(=O)NC2CCCCC2)c2ccccc23)cc1 (stereo not given),AC50,[1],"12.6 µM [falling, single point]"
O=C(NCCc1c[nH]c2ccccc12)C1Cc2ccccc2CN1C(=O)c1ccco1 (stereo not given),AC50,[1],"12.6 µM [falling, partial curve]"

# Some of the entries so far, bar-delimited:
smiles | measurement | setting | value
CCOc1ccccc1NC(=O)CCS(=O)(=O)c1cccc2nsnc12 | AC50 | [1] | 39.8 µM [rising, single point]
COc1cccc(CNC(=O)c2cc3cccc4c3n2CC(C)S4)c1OC (stereo not given) | AC50 | [1] | 20 µM [falling, partial curve]
COc1ccc(N2C(=O)CSC23C(=O)N(CC(=O)NC2CCCCC2)c2ccccc23)cc1 (stereo not given) | AC50 | [1] | 12.6 µM [falling, single point]
